Holding throughout (assay): cross-linking
Test [1] addresses FepA D34C (Escherichia coli K-12) (UniProt P05825).
Test [2] has as its target FepA D422C (Escherichia coli K-12) (UniProt P05825).
For test [3], the target named is FepA D455C (Escherichia coli K-12) (UniProt P05825).

Chains of the proteins cited; added tags and fusions are not shown. Lines headed by an entry give the natural chain unless they say otherwise; changes in a name come on top.
UniProt P05825: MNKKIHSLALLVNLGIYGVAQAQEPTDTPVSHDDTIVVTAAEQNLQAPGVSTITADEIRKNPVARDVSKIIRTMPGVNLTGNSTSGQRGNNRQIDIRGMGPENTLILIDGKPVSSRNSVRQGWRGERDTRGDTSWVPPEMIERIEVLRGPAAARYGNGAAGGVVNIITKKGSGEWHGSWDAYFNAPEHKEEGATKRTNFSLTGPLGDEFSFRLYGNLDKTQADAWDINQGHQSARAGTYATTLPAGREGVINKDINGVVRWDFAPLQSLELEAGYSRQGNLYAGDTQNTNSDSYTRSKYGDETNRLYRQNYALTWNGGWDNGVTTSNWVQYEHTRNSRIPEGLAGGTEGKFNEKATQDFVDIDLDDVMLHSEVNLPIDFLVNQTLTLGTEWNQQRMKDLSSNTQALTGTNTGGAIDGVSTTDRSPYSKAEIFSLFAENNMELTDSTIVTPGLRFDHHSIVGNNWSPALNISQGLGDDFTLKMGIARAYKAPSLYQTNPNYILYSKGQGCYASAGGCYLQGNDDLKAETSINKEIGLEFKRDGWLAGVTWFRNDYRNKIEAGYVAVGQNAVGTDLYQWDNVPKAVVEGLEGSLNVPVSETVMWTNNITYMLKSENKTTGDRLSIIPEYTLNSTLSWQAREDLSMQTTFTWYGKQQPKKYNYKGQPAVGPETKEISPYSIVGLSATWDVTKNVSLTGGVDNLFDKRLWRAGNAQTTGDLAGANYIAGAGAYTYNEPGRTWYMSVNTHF
UniProt P02929: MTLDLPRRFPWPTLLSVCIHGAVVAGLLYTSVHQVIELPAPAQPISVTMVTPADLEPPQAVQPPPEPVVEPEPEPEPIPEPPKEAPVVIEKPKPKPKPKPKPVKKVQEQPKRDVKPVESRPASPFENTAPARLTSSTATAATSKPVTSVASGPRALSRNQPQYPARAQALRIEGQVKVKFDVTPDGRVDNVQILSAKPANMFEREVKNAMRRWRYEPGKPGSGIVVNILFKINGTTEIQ

These are yes or no findings as the source states them, for the method shown. Binding seen in cells or lysates may run through a third protein. Binding can be weak; no strength is given.

As to “TonB C18G V206C (from UniProt P02929 1-239)”, the binding entry in test [1], in test [2] and in test [3] was “no binding” throughout.
Regarding “TonB C18G R212C (from UniProt P02929 1-239)”, the binding entry in test [2] and in test [3] was “binds” throughout.
With “TonB C18G A209C (from UniProt P02929 1-239)”, the binding result in test [1], in test [2] and in test [3] was “no binding” in each case.
Turning to “TonB C18G Q160C (from UniProt P02929 1-239)”, the binding result in test [2] and in test [3] was “no binding” throughout.
As to “TonB C18G R204C (from UniProt P02929 1-239)”, the binding entry in test [1] and in test [2] was “binds” each time.
“TonB C18G N208C (from UniProt P02929 1-239)”: the binding result in test [2] is reported as “binds”.
As to “TonB C18G H20A R204C (from UniProt P02929 1-239)”, the binding result in test [2] is given as “binds”.
Regarding “TonB C18G H20A R212C (from UniProt P02929 1-239)”, the binding entry in test [3] is recorded as “binds”.
For the substance “TonB C18G H20A N208C (from UniProt P02929 1-239)”, the binding result in test [2] is “binds”.

Values taken from publication doi:10.1101/2021.12.08.471779.
